Here are results for 1 molecule from patent US20200087393A1.

By UniProt entry, the sequences of proteins in these tests, tags left out.
UniProt Q9UI33: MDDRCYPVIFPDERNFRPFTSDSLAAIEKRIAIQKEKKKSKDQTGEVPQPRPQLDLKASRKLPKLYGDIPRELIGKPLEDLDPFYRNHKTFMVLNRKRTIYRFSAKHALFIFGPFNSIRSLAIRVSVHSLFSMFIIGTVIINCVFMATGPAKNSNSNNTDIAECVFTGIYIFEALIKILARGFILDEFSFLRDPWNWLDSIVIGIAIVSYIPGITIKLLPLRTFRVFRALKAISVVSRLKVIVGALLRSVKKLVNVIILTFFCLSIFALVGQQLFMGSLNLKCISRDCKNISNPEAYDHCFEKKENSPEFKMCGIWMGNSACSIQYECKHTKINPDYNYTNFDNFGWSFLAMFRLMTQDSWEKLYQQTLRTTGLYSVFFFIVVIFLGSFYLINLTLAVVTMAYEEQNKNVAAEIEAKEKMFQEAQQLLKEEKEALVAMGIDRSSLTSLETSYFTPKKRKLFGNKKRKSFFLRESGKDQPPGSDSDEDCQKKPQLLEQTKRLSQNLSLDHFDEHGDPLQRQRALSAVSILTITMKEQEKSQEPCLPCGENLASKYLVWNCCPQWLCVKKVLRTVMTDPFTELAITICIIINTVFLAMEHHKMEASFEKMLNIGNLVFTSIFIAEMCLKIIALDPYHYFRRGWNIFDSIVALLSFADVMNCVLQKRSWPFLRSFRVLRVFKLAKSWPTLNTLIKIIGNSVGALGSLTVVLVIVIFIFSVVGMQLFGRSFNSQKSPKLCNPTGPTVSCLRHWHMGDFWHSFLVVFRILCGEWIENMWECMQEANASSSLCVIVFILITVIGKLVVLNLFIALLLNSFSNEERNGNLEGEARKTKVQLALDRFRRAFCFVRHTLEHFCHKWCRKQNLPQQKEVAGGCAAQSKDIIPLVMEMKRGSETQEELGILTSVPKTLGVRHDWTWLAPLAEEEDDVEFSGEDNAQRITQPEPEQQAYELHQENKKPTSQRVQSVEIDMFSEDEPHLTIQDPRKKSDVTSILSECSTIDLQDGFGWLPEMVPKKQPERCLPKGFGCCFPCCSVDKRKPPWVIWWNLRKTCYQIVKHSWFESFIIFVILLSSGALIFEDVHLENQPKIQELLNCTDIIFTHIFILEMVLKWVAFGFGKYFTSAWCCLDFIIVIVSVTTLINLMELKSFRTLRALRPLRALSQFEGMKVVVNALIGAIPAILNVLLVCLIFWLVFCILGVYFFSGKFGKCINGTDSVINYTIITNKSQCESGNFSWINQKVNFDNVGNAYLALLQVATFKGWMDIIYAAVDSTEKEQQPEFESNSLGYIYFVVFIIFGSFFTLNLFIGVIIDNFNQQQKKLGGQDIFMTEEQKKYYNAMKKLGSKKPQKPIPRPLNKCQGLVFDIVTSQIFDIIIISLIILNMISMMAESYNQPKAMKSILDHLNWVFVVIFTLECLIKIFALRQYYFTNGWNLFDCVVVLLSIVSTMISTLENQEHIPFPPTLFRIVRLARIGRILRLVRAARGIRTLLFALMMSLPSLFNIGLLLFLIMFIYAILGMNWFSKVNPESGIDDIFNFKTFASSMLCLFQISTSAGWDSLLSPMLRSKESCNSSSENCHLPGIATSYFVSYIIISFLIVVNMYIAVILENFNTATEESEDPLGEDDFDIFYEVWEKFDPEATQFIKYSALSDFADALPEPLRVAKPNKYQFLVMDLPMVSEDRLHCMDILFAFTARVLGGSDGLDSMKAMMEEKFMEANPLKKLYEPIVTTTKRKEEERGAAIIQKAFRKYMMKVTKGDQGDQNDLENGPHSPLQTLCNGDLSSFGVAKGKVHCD

The target of assay [1] is human Nav1.9-HA (human) (UniProt Q9UI33). Nature of the assay: Western blot of total protein of ND7/23 cells transiently expressing human Nav1.9.
Assay [2] has the same target. Description: Western blot of lysate of ND7/23 cells transfected with human Nav1.9-HA; antibody 1:300.

These are yes or no findings as the source states them, for the method shown. Some entries that bind do so weakly or less than the wild type.

B1: antibody 51H10D12 (antibody, mouse IgG2b, kappa, V domains shown)
VH: QVQLQQPGAELVRPGASVKLSCKASGYSFTSYWMNWVKQRPGQGLEWIGMIHPSDSETRLNQKFKDKATLTVDKSSSTAYMQLSSPTSEDSAVYYCARQGFAYWGQGTLVTVST
VL: DIQMNQSPSSLSASLGDTITITCHASQNINVWLSWYQQKPGNIPKLLIYKASNLRTGVPSRFSGSGSGTGFTLTISSLQPEDIATYYCHQGQSYPWTFGGGTKLEIKR
B1: the binding entry in assay [1] and in assay [2] was “binds” throughout.
